The record followed here is the supplement of paper PMC10849652.

Sequences of proteins named here, by UniProt entry; tags and fusion partners are left off. A change or cut given only in a name is not applied to a line headed by its entry.
UniProt Q8N6S5: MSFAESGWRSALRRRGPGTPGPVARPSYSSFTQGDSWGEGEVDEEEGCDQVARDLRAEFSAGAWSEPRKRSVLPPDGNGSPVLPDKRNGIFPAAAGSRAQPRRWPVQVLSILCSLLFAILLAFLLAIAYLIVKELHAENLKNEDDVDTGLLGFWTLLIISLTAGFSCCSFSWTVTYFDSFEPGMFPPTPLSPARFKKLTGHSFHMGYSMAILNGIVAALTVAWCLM
UniProt Q8NHH9: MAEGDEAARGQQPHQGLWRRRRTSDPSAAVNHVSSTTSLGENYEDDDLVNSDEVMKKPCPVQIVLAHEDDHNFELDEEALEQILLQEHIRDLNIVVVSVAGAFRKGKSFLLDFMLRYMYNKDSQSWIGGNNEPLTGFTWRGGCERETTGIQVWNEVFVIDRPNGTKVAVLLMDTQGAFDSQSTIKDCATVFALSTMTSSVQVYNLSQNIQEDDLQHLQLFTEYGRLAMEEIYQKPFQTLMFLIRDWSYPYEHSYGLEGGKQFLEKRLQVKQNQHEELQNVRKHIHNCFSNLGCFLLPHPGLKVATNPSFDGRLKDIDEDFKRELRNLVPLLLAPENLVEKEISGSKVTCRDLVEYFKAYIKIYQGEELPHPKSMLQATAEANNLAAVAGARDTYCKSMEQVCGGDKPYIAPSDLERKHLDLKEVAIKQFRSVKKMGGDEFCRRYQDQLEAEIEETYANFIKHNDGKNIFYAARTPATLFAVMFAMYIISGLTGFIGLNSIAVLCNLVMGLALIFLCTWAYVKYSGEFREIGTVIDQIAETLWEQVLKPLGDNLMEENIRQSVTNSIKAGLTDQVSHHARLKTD
UniProt O95352: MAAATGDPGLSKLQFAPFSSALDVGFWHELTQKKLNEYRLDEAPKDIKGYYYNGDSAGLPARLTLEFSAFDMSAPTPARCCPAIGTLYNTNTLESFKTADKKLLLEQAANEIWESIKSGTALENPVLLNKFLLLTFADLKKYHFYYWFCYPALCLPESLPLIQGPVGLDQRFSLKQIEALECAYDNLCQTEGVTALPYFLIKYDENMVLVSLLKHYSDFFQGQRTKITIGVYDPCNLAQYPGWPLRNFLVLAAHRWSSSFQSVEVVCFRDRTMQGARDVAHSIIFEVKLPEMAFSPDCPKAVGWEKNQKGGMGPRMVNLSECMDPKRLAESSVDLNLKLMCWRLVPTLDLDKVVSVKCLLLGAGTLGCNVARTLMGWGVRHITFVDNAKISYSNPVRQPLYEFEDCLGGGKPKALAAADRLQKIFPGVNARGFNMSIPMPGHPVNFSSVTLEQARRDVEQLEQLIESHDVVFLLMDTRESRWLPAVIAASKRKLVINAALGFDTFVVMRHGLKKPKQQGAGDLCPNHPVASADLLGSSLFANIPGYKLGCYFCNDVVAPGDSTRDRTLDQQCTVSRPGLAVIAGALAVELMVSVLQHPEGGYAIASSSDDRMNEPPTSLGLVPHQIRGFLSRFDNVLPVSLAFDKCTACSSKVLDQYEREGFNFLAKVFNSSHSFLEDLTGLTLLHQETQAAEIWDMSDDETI
UniProt P36405: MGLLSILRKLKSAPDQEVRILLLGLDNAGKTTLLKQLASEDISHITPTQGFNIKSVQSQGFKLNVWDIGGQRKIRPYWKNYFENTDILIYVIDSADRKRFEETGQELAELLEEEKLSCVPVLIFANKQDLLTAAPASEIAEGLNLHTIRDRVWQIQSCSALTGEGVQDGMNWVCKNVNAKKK
UniProt Q9NVI7: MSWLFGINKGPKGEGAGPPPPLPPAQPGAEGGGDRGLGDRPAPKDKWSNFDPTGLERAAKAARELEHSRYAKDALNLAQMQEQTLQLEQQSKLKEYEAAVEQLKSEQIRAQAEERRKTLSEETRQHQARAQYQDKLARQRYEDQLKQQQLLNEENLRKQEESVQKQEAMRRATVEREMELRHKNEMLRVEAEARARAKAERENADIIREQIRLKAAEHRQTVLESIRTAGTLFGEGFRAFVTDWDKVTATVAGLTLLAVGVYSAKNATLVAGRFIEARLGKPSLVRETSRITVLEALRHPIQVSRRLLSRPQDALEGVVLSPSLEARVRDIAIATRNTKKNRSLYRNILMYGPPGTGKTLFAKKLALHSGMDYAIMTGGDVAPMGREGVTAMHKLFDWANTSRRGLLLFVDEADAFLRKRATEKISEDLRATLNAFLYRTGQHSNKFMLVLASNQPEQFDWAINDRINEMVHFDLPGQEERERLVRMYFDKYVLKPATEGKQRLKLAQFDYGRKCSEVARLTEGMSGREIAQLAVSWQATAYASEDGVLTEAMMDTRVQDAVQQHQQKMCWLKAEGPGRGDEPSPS
UniProt P56211: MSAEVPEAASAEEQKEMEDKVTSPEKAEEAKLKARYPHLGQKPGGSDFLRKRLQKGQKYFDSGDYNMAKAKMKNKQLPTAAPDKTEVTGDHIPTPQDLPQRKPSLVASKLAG
UniProt Q8N5M1: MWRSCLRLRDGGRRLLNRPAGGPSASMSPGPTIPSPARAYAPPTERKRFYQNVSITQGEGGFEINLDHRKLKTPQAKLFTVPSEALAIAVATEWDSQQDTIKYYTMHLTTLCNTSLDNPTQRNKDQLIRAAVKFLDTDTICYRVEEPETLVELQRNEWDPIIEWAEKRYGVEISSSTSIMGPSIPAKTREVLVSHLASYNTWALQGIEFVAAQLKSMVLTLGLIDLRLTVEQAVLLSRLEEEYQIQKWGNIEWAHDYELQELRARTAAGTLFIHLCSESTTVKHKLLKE
UniProt P27540, whole entry, looked up: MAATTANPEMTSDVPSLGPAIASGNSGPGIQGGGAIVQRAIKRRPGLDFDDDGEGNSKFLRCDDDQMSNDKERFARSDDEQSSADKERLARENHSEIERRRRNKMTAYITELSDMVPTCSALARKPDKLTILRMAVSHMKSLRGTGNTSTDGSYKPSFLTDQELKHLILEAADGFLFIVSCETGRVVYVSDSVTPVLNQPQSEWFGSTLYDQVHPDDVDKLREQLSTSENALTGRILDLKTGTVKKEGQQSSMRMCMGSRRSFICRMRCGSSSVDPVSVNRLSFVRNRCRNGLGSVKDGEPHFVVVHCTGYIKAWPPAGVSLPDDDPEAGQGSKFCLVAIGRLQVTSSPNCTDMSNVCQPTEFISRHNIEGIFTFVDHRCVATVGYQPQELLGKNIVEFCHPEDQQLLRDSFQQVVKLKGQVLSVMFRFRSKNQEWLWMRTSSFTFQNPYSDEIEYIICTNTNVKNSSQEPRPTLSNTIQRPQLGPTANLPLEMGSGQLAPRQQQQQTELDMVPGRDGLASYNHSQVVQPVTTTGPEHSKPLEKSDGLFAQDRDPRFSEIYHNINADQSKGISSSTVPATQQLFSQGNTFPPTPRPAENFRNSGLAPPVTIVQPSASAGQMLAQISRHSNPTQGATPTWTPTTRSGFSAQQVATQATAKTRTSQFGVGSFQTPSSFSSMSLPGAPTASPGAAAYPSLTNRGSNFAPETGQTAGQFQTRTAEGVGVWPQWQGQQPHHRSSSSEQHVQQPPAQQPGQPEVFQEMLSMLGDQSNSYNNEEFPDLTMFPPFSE

Common to all, as to experiment: log2 fold change, soluble protein after heating vs DMSO (PISA); higher = thermal stabilisation; K562 cells, 10 uM, 30 min; active = over 0.2 and 3.5 SD of the protein, either way, in both replicates (recomputed)
Compound in experiment [1]: COC1=CC=C(C=C1)CN2C=CC3=C2C=C(C=C3)C(=O)NO
Summed up: (§1)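 Quantification of soluble protein used TMTpro 16plex LC-MS/MS, with channel sums equalised. Samples were the supernatant after 21,000xg for 90 min of pooled aliquots from K562 cells (2×10^6 cells/mL) treated with 10 μM compound for 30 min, heated for 3 min over 48°C-58°C, and extracted in PBS with 0.5% NP-40 at 4°C. Values, from duplicates, describe thermal stability against control samples on a log2 fold-change scale.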

Compound in experiment [2]: CON(C)C(=O)N1N=C(c2cc(F)ccc2F)S[C@@]1(CCCN)c1ccccc1 [filanesib]
Summed up:
as §1

Compound in experiment [3]: CO[C@H]1C[C@@H]2CC[C@@H](C)[C@@](O)(O2)C(=O)C(=O)N2CCCC[C@H]2C(=O)O[C@H]([C@H](C)C[C@@H]2CC[C@H](n3cnnn3)[C@H](OC)C2)CC(=O)[C@H](C)/C=C(\C)[C@@H](O)[C@@H](OC)C(=O)[C@H](C)C[C@H](C)/C=C/C=C/C=C/1C [zotarolimus]
Summed up:
as §1

Compound in experiment [4]: COc1cc(C(=O)O)ccc1NC(=O)[C@@H]1N[C@@H](CC(C)(C)C)[C@](C#N)(c2ccc(Cl)cc2F)[C@H]1c1cccc(Cl)c1F [idasanutlin]
Summed up:
as §1

Compound in experiment [5]: COc1cc(Nc2ncc3c(n2)-c2ccc(Cl)cc2C(c2c(F)cccc2OC)=NC3)ccc1C(=O)O [alisertib]
Summed up: as §1

Compound in experiment [6]: COc1cc2nc(-c3cc(F)ccc3O)nc(N[C@@H]3CNC[C@H]3C(C)(C)O)c2cc1OC
Summed up: as §1

Compound in experiment [7]: COc1cc2ncnc(Nc3ccc(F)c(Cl)c3)c2cc1OCCCN1CCOCC1 [gefitinib]
Summed up:
as §1

Compound in experiment [8]: COc1cccc2cc(-c3nc([C@H]4CC[C@H](C(=O)O)CC4)n4ncnc(N)c34)[nH]c12
Summed up:
as §1

Compound in experiment [9]: CS(=O)(=O)CCNCc1ccc(-c2ccc3ncnc(Nc4ccc(OCc5cccc(F)c5)c(Cl)c4)c3c2)o1 [lapatinib]
Summed up:
as §1

Compound in experiment [10]: CS(=O)(=O)N1CCN(Cc2cc3nc(-c4cccc5[nH]ncc45)nc(N4CCOCC4)c3s2)CC1 [pictilisib]
Summed up: as §1

Compound in experiment [11]: CS(=O)(=O)c1ccc(-c2cnc(N)c(C(=O)Nc3ccccc3)n2)cc1
Summed up: as §1

Compound in experiment [12]: C[C@@H](Oc1cc(-c2cnn(C3CCNCC3)c2)cnc1N)c1c(Cl)ccc(F)c1Cl [crizotinib]
Summed up:
as §1

Compound in experiment [13]: C[C@@H]1COCCN1C2=NC(=NC(=C2)C3(CC3)S(=O)(=O)C)C4=C5C=CNC5=CC=C4
Summed up: as §1

Compound in experiment [14]: C[C@H](C1=CC=C(C=C1)C(=O)NC2=C3C=CNC3=NC=C2)N
Summed up:
as §1

Compound in experiment [15]: Cc1cc(Nc2cc(CN3CCOCC3)c3nc(C)c(Cc4ccc(Cl)cc4F)n3n2)n[nH]1 [gandotinib]
Summed up:
as §1

Compound in experiment [16]: Cc1cc(SCc2sc(-c3ccc(C(F)(F)F)cc3)nc2C)ccc1OCC(=O)O
Summed up:
as §1

Compound in experiment [17]: Cc1ccc(-n2nc(C(C)(C)C)cc2NC(=O)Nc2ccc(OCCN3CCOCC3)c3ccccc23)cc1 [doramapimod]
Summed up: as §1

Compound in experiment [18]: Cc1ccc(C(=O)N(CCCN)[C@@H](c2nc3cc(Cl)ccc3c(=O)n2Cc2ccccc2)C(C)C)cc1 [ispinesib]
Summed up:
as §1

Compound in experiment [19]: C[C@H](Nc1ncnc2nc[nH]c12)c1cc2cccc(Cl)c2c(=O)n1-c1ccccc1 [duvelisib]
Summed up: as §1

Compound in experiment [20]: Cc1cc(Nc2cc(N3CCN(C)CC3)nc(Sc3ccc(NC(=O)C4CC4)cc3)n2)n[nH]1 [tozasertib]
Summed up:
as §1

This is one part of the list.

In the case of ARL6IP6 (UniProt Q8N6S5), the log2 fold change in experiment [1] is inactive: -0.113; in experiment [2], inactive: -0.014; in [3], inactive: -0.03; in experiment [4], inactive: -0.088; in experiment [5], inactive: 0.004; in [6], inactive: -0.042. Also, the log2 fold change in experiment [7] is inactive: -0.021; in experiment [8], inactive: 0.036; in experiment [9], inactive: 0.004; in experiment [10], inactive: 0.005; in experiment [11], inactive: 0.046; in experiment [12], inactive: -0.016. In addition, the log2 fold change in [13] was inactive: 0.017; in experiment [14], inactive: -0.042; in experiment [15] it was inactive: -0.008; in [16], inactive: -0.042; in experiment [17], inactive: 0.03; in experiment [18], inactive: 0.175.

Take ATL2 (UniProt Q8NHH9): the log2 fold change is inactive: -0.006 in experiment [1]; inactive: -0.03 in experiment [2]; inactive: 0.026 in experiment [3]; inactive: -0.052 in experiment [4]; inactive: 0.008 in experiment [5]; inactive: 0.148 in experiment [6]. Moreover, the log2 fold change was inactive: 0.016 in experiment [7]; inactive: 0.034 in experiment [8]; inactive: -0.039 in experiment [9]; inactive: 0.003 in [10]; inactive: 0.078 in [11]; inactive: -0.031 in [12]. The log2 fold change in [13] is inactive: -0.003; in experiment [14] it was inactive: -0.014; in [15], inactive: -0.035; in [16], inactive: 0.056; in experiment [17], inactive: -0.018; in experiment [18], active: 0.376.

Take ATG7 (UniProt O95352): the log2 fold change in experiment [1] was inactive: -0.039; in experiment [2], inactive: -0.006; in experiment [3], inactive: 0.035; in experiment [4], inactive: -0.06; in [5], inactive: 0.003; in experiment [6], inactive: -0.02. Besides, the log2 fold change in [7] is inactive: -0.007; in experiment [8] it was inactive: 0.017; in experiment [9], inactive: 0.015; in experiment [10] it was inactive: -0.079; in experiment [11], inactive: 0.038; in experiment [12], inactive: 0.02. Besides, the log2 fold change in experiment [13] is inactive: 0.047; in [14], inactive: -0.061; in [19], inactive: -0.02; in experiment [15] it was inactive: -0.151; in [20], inactive: -0.004; in experiment [16] it was inactive: 0.1. The figures for the log2 fold change in [17] and in [18] were inactive: -0.003 and inactive: 0.048, respectively.

For the target ARL3 (UniProt P36405), the log2 fold change in experiment [1] was inactive: 0; in experiment [2], inactive: -0.017; in experiment [3], inactive: -0.006; in experiment [4], inactive: -0.062; in experiment [5], inactive: -0.076; in experiment [6], inactive: -0.007. Moreover, the log2 fold change is inactive: -0.018 in experiment [7]; inactive: 0.047 in experiment [8]; inactive: -0.03 in experiment [9]; inactive: 0.031 in [10]; inactive: 0.029 in experiment [11]; inactive: 0.041 in [12]. The log2 fold change was inactive: 0.019 in experiment [13]; inactive: -0.017 in [14]; inactive: 0.025 in [15]; inactive: -0.012 in [16]; inactive: -0.003 in [17]; inactive: 0.063 in [18].

Regarding ATAD3A isoform 2 (UniProt Q9NVI7), the log2 fold change was inactive: -0.029 in experiment [1]; inactive: -0.005 in experiment [2]; inactive: -0.053 in [3]; inactive: 0.073 in experiment [4]; inactive: -0.006 in experiment [5]; inactive: -0.116 in experiment [6]. Further, the log2 fold change in experiment [7] was inactive: -0.199; in experiment [8] it was inactive: 0.001; in experiment [9], inactive: -0.029; in experiment [10], inactive: -0.185; in experiment [11], inactive: 0.003; in experiment [12], inactive: -0.191. Besides, the log2 fold change in experiment [13] was inactive: -0.052; in experiment [14], inactive: 0.101; in experiment [15] it was inactive: 0.032; in experiment [16], inactive: 0.075; in [17] it was inactive: 0.057; in [18] it was active: -0.348.

ARPP19 (UniProt P56211): the log2 fold change in experiment [1] is active: 0.294; in experiment [2], inactive: 0.033; in experiment [3], inactive: -0.016; in [4], inactive: 0.002; in [5], inactive: -0.061; in [6] it was inactive: -0.184. Further, the log2 fold change in experiment [7] was inactive: -0.007; in [8], inactive: 0.075; in experiment [9], inactive: -0.01; in [10] it was inactive: -0.073; in experiment [11], inactive: -0.017; in experiment [12] it was inactive: 0.059. Besides, the log2 fold change in experiment [13] is inactive: 0.006; in experiment [14], inactive: -0.106; in experiment [15] it was inactive: 0.019; in [16], inactive: -0.106; in [17], inactive: -0.037; in [18], inactive: 0.048.

For the target ATPAF2 (UniProt Q8N5M1), the log2 fold change in [1] was inactive: -0.014; in experiment [2], inactive: -0.038; in experiment [3] it was inactive: 0.016; in experiment [4], inactive: -0.151; in experiment [5], inactive: -0.132; in experiment [6], inactive: 0.001. Also, the log2 fold change in [7] is inactive: 0.024; in [8] it was inactive: 0.06; in experiment [9], inactive: 0.014; in experiment [10], inactive: -0.03; in experiment [11], inactive: -0.014; in [12], inactive: 0.016. For the same target, the log2 fold change in experiment [13] was inactive: 0.003; in [14], inactive: 0.015; in experiment [19], inactive: -0.029; in experiment [15], inactive: -0.021; in experiment [20], inactive: 0.006; in experiment [16], inactive: 0.055. The log2 fold change is inactive: -0.012 in experiment [17] and inactive: -0.003 in experiment [18].

Regarding ARNT (UniProt P27540), the log2 fold change in experiment [1] was inactive: -0.095; in experiment [2], inactive: -0.003; in experiment [3], inactive: 0.096; in experiment [4], inactive: -0.005; in [5] it was inactive: 0.018; in experiment [6], inactive: 0.001. For the same target, the log2 fold change in experiment [7] was inactive: 0.042; in [8], inactive: -0.12; in [9], inactive: -0.014; in [10] it was inactive: 0.032; in experiment [11], inactive: 0.005; in experiment [12], inactive: -0.016. In addition, the log2 fold change in experiment [13] is inactive: 0.054; in experiment [14] it was inactive: 0.017; in experiment [19], inactive: -0.046; in experiment [15] it was inactive: -0.053; in [20], inactive: 0.052; in [16], inactive: 0.029. For the same target, the log2 fold change in experiment [17] was inactive: 0.048; in experiment [18], inactive: 0.049.
